In PubChem BioAssay AID2098 (Broad Institute, 2009):
Hit rate of the full screen: of about 300,000 compounds, about 2,300 (0.77%) were called active. Inconclusive means that the source gave no clear call. Such entries were picked first, then a sample of the others.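 Rule for the calls: active = more than half of replicate wells show activity change below -50%, luminescence cut by over half; inconclusive = some wells, but at most half, below -50%; inactive = no replicate well below -50%.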

Assay: HSF1 inhibitors in luciferase reporter cells, primary screen, cell-based, NIH3T3, luminescence (AID 2098);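 note: luciferase reports HSF-1 transcriptional activity via heat shock element; 0% = median of DMSO wells and -100% = zero luminescence signal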
Settings: NIH3T3-HGL HSE-luciferase, MG132-induced, luminescence 8 h; hits give low values; screened at 7.5 µM (by protocol)

Row | Structure (SMILES) | activity change, negative = inhibition
1 | Cc1c(C(=O)OCC(=O)N2CC(C)OC(C)C2)oc2ccc(Br)cc12 (stereo unspecified) | inconclusive: -48.9%
2 | C=CCn1c(C)nnc1SCC(=O)Nc1nc(C)c(C(=O)N(C)C)s1 | active: -75.8%
3 | N#C/C(=C\c1cccnc1)c1ccc([N+](=O)[O-])cc1 | inconclusive: -31.1%
4 | O=c1c2c(-c3ccc([N+](=O)[O-])cc3)csc2nc2n1CCC2 | inconclusive: -25.2%
5 | CSc1nnc(NC(=O)c2nc(S(=O)(=O)Cc3cccc(C)c3)ncc2Cl)s1 | inconclusive: -54.9%
6 | Cc1ccccc1-c1nc(-c2ccccn2)no1 | inconclusive: -53.9%
7 | c1cncc(CNCc2ccco2)c1 | inactive: -7.45%
8 | CCn1c(-c2ccc3[nH]c(C)c(C)c3c2)n[nH]c1=S | inconclusive: -46.1%
9 | O=C(Nc1ccc(C(=O)N2CCOCC2)cc1)Nc1cccc(C(F)(F)F)c1 | inconclusive: -48.7%
10 | CC(C)(C)NC(=S)Nc1ccc(Br)cc1 | inactive: 8.55%
11 | C/C(=N\NC(=O)C(N)=O)c1ccc(O)cc1O | inconclusive: -27.7%
12 | CC(C)(C)c1ccc(C(=O)Nc2cccc3c(=O)[nH][nH]c(=O)c23)cc1 | active: -61.4%
13 | COC(=O)c1cc(CSc2ncnc3sccc23)oc1C | inactive: 5.03%
14 | O=C(c1ccco1)N1CCN=C1SCc1ccccc1F | inconclusive: -49.5%
15 | CCSc1nc2ccccc2c(=O)n1CCc1ccc(OC)c(OC)c1 | inactive: -10.6%
16 | CC(=O)c1ccc2c(c1)N(C)c1ccccc1S2 | inconclusive: -48.1%
17 | CCCCN1C(=O)C(CC(=O)NCC)SC1=Nc1ccccc1 (stereo unspecified) | inconclusive: -49.2%
18 | Cc1ccc(NC(=O)c2cc(C)n(-c3cccc(C)c3)c2C)cc1 | active: -70.3%
19 | Cc1ccccc1OCC(=O)Nc1ccc2c(c1)C(=O)N(CCC(=O)O)C2=O | active: -50.7%
20 | CC(=O)Nc1ccc(C2=NNC(=Nc3cccc(S(=O)(=O)N(C)C)c3)SC2)cc1 | inconclusive: -49.1%
21 | CCC(=O)c1ccc(OCC(O)CN2CCN(c3ccc(F)cc3)CC2)cc1 (stereo unspecified) | inconclusive: -51.2%
22 | CCCCOc1ccc(N=Cc2ccc[nH]2)cc1 | active: -68%
23 | CS/C(=N\S(=O)(=O)c1cccs1)Nc1ccc(F)c(Cl)c1 | inactive: -7.45%

Gathered by group: the entries above with bromine
Row | Structure (SMILES) | activity change, negative = inhibition
1 | Cc1c(C(=O)OCC(=O)N2CC(C)OC(C)C2)oc2ccc(Br)cc12 (stereo unspecified) | inconclusive: -48.9%
10 | CC(C)(C)NC(=S)Nc1ccc(Br)cc1 | inactive: 8.55%

More results

Row | Structure (SMILES) | activity change, negative = inhibition
24 | CCOc1ccc(-n2c(C)c(C(C)=O)c3cc(OC(C)=O)ccc32)cc1 | inconclusive: -50%
25 | O=C(NCc1ccccc1)c1onc(CSc2ccc(Cl)cc2)c1C(=O)NCc1ccccc1 | inconclusive: -42.4%
26 | COc1cc(OC)cc(OC(=O)C2CCN(C(=O)c3ccc(F)cc3)CC2)c1 | inactive: -7.46%
27 | Cc1ccc2nsnc2c1S(=O)(=O)NCCc1c(C)[nH]c2ccc(F)cc12 | inactive: -0.977%
28 | N/C(=N\OC(=O)Cc1ccc([N+](=O)[O-])cc1)c1cccc(Br)c1 | inactive: 10.9%
29 | COc1ccc(NC(=S)NNc2ccc(S(=O)(=O)Nc3ccccc3C(=O)O)cc2[N+](=O)[O-])cc1 | inactive: -5.08%
30 | CCn1nc(C(=O)OCC(=O)NC(C)C)c2ccccc2c1=O | inconclusive: -83.3%
31 | C=CC(=O)NC(C)(C)Cc1ccccc1 | inconclusive: -29.5%
32 | Cc1cccc(N2CCN(C(c3ccccc3)c3nnnn3CC3CCCO3)CC2)c1C (stereo unspecified) | active: -61%
33 | O=C(Nc1ccc(Nc2ccccc2)cc1)c1ccc(Br)o1 | inactive: 18.8%
34 | CC(NC(=O)c1ccc2c(c1)OCO2)c1ccccc1 (stereo unspecified) | active: -71.5%
35 | COc1ccc(C2c3ccc4ccccc4c3Oc3ncn(CCCN(C)C)c(=N)c32)cc1 (stereo unspecified) | inactive: -9.41%
36 | Cc1ccc(S(=O)(=O)N2CCN(CC(=O)N/N=C\c3ccncc3)CC2)cc1 | inconclusive: -50.1%
37 | CC(C)[C@H](Nc1nc(-c2ccccc2)nc2c1oc1ccccc12)C(=O)O | active: -54.9%
38 | CCc1ccc(S(=O)(=O)/N=C2\C=C(Nc3ccc(O)cc3)C(=O)c3ccccc32)cc1 | active: -95.2%
39 | Cc1nc(-c2ccc(NC(=O)c3ccco3)cc2)cs1 | inconclusive: -49.3%
40 | Cc1nc(Nc2ccc3c(c2)OCCO3)c2nnn(Cc3ccccc3Cl)c2n1 | inconclusive: -50.2%
41 | CC(C)(C)c1cnnn1-c1ccc(C(=O)CCl)cc1 | active: -57.2%
42 | CCN(CC)c1ccc([N+](=O)[O-])cc1C(=O)N1CCOCC1 | inactive: 8.38%
43 | O=C1CCC2S/C(=C/Nc3ccc(C(F)(F)F)cc3)C(=O)N12 (stereo unspecified) | active: -65.1%
44 | Oc1ccc(-c2nccc(-c3ccc(F)cc3)n2)cc1 | inactive: 18.9%
45 | CC1CCN(S(=O)(=O)c2ccc3c(c2)N(CC(=O)NCCCN(Cc2ccccc2)C(C)C)C(=O)CO3)CC1 | inconclusive: -24.3%
46 | O=C(CCN1CCOCC1)NNC(=S)NC(=O)c1ccccc1 | inactive: -1.87%
